Measurements from PubChem BioAssay AID1671190 (National Center for Advancing Translational Sciences (NCATS), 2021).
Values joined by “and” are separate entries in the source; they are usually repeats but may differ in a detail not shown here. Identical values can stand only once. The campaign covered roughly 580,000 compounds. About 6,100 (1.1%) were called active. Inconclusive means that the source gave no clear call. Such entries were picked first, then a sample of the others. Calls follow the shape of the dose curve; as a rule, active = well fitted inhibition curve with a large enough effect; inconclusive = small, poorly fitted or top-dose-only effect, or another doubt; inactive = no such curve, though single readings can be large or run the other way. Potencies beside an inconclusive call are fits to weak or partial responses and may not hold up. The source holds several records for some structures; these can differ, active in one and inactive in another.

Chains of the proteins cited; added tags and fusions are not shown. Lines headed by an entry give the natural chain unless they say otherwise; changes in a name come on top.
UniProt P18054: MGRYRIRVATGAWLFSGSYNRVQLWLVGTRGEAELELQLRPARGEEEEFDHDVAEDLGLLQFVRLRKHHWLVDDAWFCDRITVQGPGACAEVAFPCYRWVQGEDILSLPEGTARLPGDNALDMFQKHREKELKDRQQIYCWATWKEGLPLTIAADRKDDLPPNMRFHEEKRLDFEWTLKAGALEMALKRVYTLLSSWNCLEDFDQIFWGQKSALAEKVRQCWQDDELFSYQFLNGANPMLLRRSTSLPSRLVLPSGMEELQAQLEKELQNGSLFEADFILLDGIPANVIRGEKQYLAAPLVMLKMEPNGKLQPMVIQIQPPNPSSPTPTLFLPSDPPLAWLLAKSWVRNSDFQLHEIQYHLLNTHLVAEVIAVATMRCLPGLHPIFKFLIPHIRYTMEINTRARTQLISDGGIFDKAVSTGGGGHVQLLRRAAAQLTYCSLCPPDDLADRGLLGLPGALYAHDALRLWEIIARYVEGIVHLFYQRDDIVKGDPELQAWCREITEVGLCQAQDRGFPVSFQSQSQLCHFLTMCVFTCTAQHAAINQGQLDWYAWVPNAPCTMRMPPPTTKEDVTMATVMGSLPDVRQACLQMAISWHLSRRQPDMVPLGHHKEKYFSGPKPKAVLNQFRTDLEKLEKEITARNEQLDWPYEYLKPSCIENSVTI

target: Polyunsaturated fatty acid lipoxygenase ALOX12 (Homo sapiens) (UniProt P18054); assay: Primary qHTS assay for inhibitors of human arachidonate 12S-lipoxygenase (ALOX12): Round 2; conditions: purified 12hLO, xylenol orange hydroperoxide absorbance; activity change, negative = inhibition: at 108 µM (top of the series) unless noted
In short: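 Purified human 12hLO at 150 nM in 25 mM Hepes, 0.01% Triton X-100, pH 7.0, preincubated 15 min at room temperature with compound. Reaction started with 40 uM arachidonic acid, 30 min at room temperature. Hydroperoxide measured by Fe-xylenol orange, 573/405 nm absorbance ratio.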
% is scaled to controls: 0 for no effect and ±100 for the full control effect; potency is read from the fitted curve at half-maximal effect.

SMILES | Potency | activity change, negative = inhibition
COc1ccccc1Nc1c2c(nc3ccc(NC(=O)c4cccc(OC)c4OC)cc13)CCCC2 | inconclusive: 126 µM [inhibitor, single point] | –
CC(C)c1ccc(NC(=O)C2(C)Cc3c(-c4cccc(C(F)(F)F)c4)ccnc3O2)cc1 (stereo unspecified) | inconclusive: 89.1 µM [inhibitor, single point] | –
O=C(O)c1cc(-c2ccco2)nc2ccc(Br)cc12 | inconclusive: 44.7 µM [inhibitor, partial curve] and active: 15.8 µM | –
CC(=O)Nc1ccc(S(=O)(=O)NCc2ccc(C(=O)NCc3ccc(Cl)cc3)cc2)cc1 | inconclusive: 89.1 µM [inhibitor, single point] | –
CC1Cc2ccccc2N1C(=O)CCNS(=O)(=O)c1cccc2nsnc12 (stereo unspecified) | – | inconclusive: -42.3% [inhibitor]
O=C(Nc1ccc(C(F)(F)F)cc1)C1CCCN(S(=O)(=O)c2cccc3cccnc23)C1 (stereo unspecified) | – | inactive: -9.94%
CCC1CCCCN1C(=O)CSc1n[nH]c(-c2ccccc2Cl)n1 (stereo unspecified) | inconclusive: 79.4 µM [inhibitor, partial curve, poor fit] | –
Cc1ccc(C(=O)C2CCN(CC(=O)Nc3nc(C)cs3)CC2)cc1 | – | inactive: 6.42% [at 57.4 µM]
O=S(=O)(NCCc1cn2ccccc2n1)c1ccc2c(c1)OCCO2 | – | inactive: 31.4%
O=C(CC1CCCC1)N[C@H](C(=O)N1CCC[C@H]1C(=O)NC1CCCC1)c1ccccc1 | – | inactive: -5.66%
Cn1cc(/C=C(\C#N)C(=O)Nc2ncc(Cc3ccc(Cl)cc3)s2)c2ccccc21 | inconclusive: 39.8 µM [inhibitor, partial curve] | –
COCCn1cc2c(c1-c1ccc(Cl)cc1)c(=O)n(C)c(=O)n2C | inconclusive: 79.4 µM [inhibitor, partial curve, poor fit] | –
FC(F)(F)c1cccc(N/N=C/c2ccc(Cl)cc2Cl)c1 | inconclusive: 5.01 µM [inhibitor, full curve, poor fit] | –
CC(C)=CCc1c(O)c(CC=C(C)C)c2c(c1O)C(=O)CC(c1ccc(O)cc1)O2 (stereo unspecified) | inconclusive: 50.1 µM [inhibitor, partial curve, poor fit] | –
Cc1cc(=O)n(Cc2ccccc2)c2ccccc12 | – | inactive: 0.894%
Oc1cccc(/C=C/c2nc3ccccc3s2)c1 | inconclusive: 50.1 µM [inhibitor, partial curve, poor fit] | –
CCOc1cc2c(cc1NC(=O)CCc1ccco1)OC(C)C2 (stereo unspecified) | inconclusive: 3.16 µM [inhibitor, single point] | –
Cc1ccc(N(Cc2ccccc2)C(=O)c2ccc(Cl)c(S(=O)(=O)N3CCOCC3)c2)cc1 | – | inactive: 4.2%
CCN(c1ccc(OC)cc1)S(=O)(=O)c1nnc(NC(=O)c2ccccc2C)s1 | – | inactive: -13.3%
CC(NS(=O)(=O)OCC(Cl)(Cl)Cl)c1ccc(Br)cc1 (stereo unspecified) | inconclusive: 56.2 µM [inhibitor, partial curve, poor fit] | –
CC(C)(C)c1ccc(C(=O)NCC(c2cccs2)N2CCCC2)cc1 (stereo unspecified) | inconclusive: 28.2 µM [inhibitor, partial curve, poor fit] | –

SMILES | Potency | activity change, negative = inhibition
Cc1ccc(NC(=O)CSc2nnc([C@H](C)NC(=O)OC(C)(C)C)o2)c(C)c1 | inconclusive: 126 µM [inhibitor, single point] | –
Cc1ccc(C)c(OCC(=O)NCCN(C)C)c1 | inconclusive: 44.7 µM [inhibitor, partial curve, poor fit] | –
CCOC(=O)c1cccc(NC(=O)N2CCC(CN3CCc4ccccc4C3)CC2)c1 | inconclusive: 126 µM [inhibitor, partial curve, poor fit] and inconclusive: 89.1 µM [inhibitor, single point] | –
Cc1ccc(Nc2cc(C)nc3ncnn23)c(C)c1 | inconclusive: 35.5 µM [inhibitor, partial curve, poor fit] | –
COc1cc(C(=O)Nc2c(NCc3ccccc3)c3ccccc3oc2=O)ccc1OC(C)=O | inconclusive: 79.4 µM [inhibitor, single point] | –
CC1(c2ccccc2)N(Cc2ccccc2)C(=O)OC12CCN(Cc1cccnc1)CC2 (stereo unspecified) | – | inactive: 9.72% [at 176 µM]
Cc1noc(C)c1C(=O)Nc1sc2c(c1C(N)=O)CCCCC2 | – | inactive: -16.9%
CCNC(=O)N1CCCCCNC(=O)CC1c1ccccc1 (stereo unspecified) | inconclusive: 44.7 µM [inhibitor, partial curve, poor fit] | –
Cc1ccc(OCCn2c(C3CC(=O)N(Cc4ccccc4)C3)nc3ccccc32)cc1 (stereo unspecified) | inconclusive: 141 µM [inhibitor, single point] | –
O=C1NC2(Cc3ccccc31)CN(CC1CCNC1)C2 (stereo unspecified) | inconclusive: 28.2 µM [inhibitor, full curve] | –
COc1ccc(-c2cc(N3CCCC(NC(=O)c4ccncc4)C3)n[nH]2)cc1 (stereo unspecified) | – | inactive: 44.6%
c1ccc(CNCCCn2ccnc2)cc1 | inconclusive: 31.6 µM [inhibitor, partial curve, poor fit] | –
Cn1c(=O)[nH]c(=O)c2c1nc(CN1CCOCC1)n2Cc1ccc(F)cc1 | inconclusive: 50.1 µM [inhibitor, single point] | –
CC(C)NC(=O)C[C@@H]1c2nc(NC(=O)C3CCCCC3)sc2C[C@@H]2[C@](C)(CO)[C@H](O)CC[C@]21C | inconclusive: 39.8 µM [inhibitor, full curve] | –
COCCn1cc(CN2CCc3ccccc3C2)ccc1=O | inconclusive: 15.8 µM [inhibitor, partial curve] | –
Cc1cc(C)n(-c2ccc(C(=O)NCc3ccc4c(c3)OCO4)cc2)n1 | inconclusive: 39.8 µM [inhibitor, single point] | –
CCCCNC(=O)C12CC3CC(CC(C3)C1)C2 | – | inactive: 19%
COc1ccc(C(=O)N2C[C@@H]3C[C@H](C2)c2ccc(NS(=O)(=O)c4ccc(NC(C)=O)cc4)c(=O)n2C3)cc1 | inconclusive: 28.2 µM [inhibitor, full curve] | –
CN(C(=O)c1cc2ccccc2cc1O)C1CCCCC1 | inconclusive: 79.4 µM [inhibitor, partial curve, poor fit] | –
CC(=O)NCCNC(=O)C[C@@H]1CCNC[C@@H]1Cc1cc(-c2ccccn2)on1 | – | inactive: 51% [at 176 µM]
